Here are results for four molecules from PMC10928986, “ARTC1-mediated VAPB ADP-ribosylation regulates calcium homeostasis” (Journal of Molecular Cell Biology, 2023).

Chains of the proteins cited; added tags and fusions are not shown.
UniProt O95292: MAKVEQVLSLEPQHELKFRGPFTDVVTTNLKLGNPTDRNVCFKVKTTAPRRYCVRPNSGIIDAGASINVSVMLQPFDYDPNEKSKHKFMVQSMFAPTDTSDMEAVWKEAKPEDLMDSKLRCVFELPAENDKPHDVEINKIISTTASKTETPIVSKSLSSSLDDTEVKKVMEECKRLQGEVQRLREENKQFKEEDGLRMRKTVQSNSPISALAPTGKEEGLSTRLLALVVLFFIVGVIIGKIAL

Experiment [1] concerns the target SFB-tagged human full-length VAPB (wild type) (human) (UniProt O95292). Kind of experiment: co-IP; exogenous co-IP from lysates of AC16 cells transfected with the indicated plasmids; lysis in NETN 300, anti-HA with Protein G-Sepharose or streptavidin agarose, washes in NETN 100.
For experiment [2], the target named is T1, endogenous hARTC1 (human (endogenous in AC16 and 293T)) (UniProt P52961).
T1 sequence: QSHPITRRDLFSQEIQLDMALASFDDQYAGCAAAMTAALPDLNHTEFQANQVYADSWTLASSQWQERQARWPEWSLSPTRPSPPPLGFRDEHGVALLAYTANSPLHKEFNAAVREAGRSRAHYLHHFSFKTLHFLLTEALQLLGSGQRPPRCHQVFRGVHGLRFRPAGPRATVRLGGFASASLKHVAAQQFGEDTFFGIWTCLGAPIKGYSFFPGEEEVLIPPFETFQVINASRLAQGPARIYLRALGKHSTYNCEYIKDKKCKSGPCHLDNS
Kind of experiment: co-IP; endogenous co-IP of hARTC1 and hARTC3 in AC16 cells and 293T cells.

Experiment [3] addresses endogenous VAPB (human (endogenous in AC16 and HEK-293T)) (UniProt O95292). Kind of experiment: co-IP; endogenous co-IP of VAPB and SCRN1 from lysates of control or ARTC1-knockdown AC16 cells.

These are yes or no findings as the source states them, for the method shown. In cells and extracts the contact can be indirect. Some binding calls cover weakened binding; strength is not graded here. For some of these results: Sequences can lack the tags named with a protein.

B1: hARTC1, exogenously expressed in AC16 cells (enzyme, UniProt P52961 23-295)
chain: T1 sequence
In the case of B1, in experiment [1], the binding result is “binds”.

B2: endogenous hARTC3 (protein, UniProt Q13508 27-362)
chain: EVLDMADNAFDDEYLKCTDRMEIKYVPQLLKEEKASHQQLDTVWENAKAKWAARKTQIFLPMNFKDNHGIALMAYISEAQEQTPFYHLFSEAVKMAGQSREDYIYGFQFKAFHFYLTRALQLLRKPCEASSKTVVYRTSQGTSFTFGGLNQARFGHFTLAYSAKPQAANDQLTVLSIYTCLGVDIENFLDKESERITLIPLNEVFQVSQEGAGNNLILQSINKTCSHYECAFLGGLKTENCIENLEYFQPIYVYNPGEKNQKLEDHSEKNWKLEDHGEKNQKLEDHGVKILEPTQIPGMKIPEPFPLPEDKSQGNINNPTPGPVPVPGPKSHPSAS
Take B2: the binding result in experiment [2] is on record as “binds”.

B3: HA-tagged human full-length SCRN1 (protein, UniProt Q12765 1-414)
chain: MAAAPPSYCFVAFPPRAKDGLVVFGKNSARPRDEVQEVVYFSAADHEPESKVECTYISIDQVPRTYAIMISRPAWLWGAEMGANEHGVCIANEAINTREPAAEIEALLGMDLVRLGLERGETAKEALDVIVSLLEEHGQGGNYFEDANSCHSFQSAYLIVDRDEAWVLETIGKYWAAEKVTEGVRCICSQLSLTTKMDAEHPELRSYAQSQGWWTGEGEFNFSEVFSPVEDHLDCGAGKDSLEKQEESITVQTMMNTLRDKASGVCIDSEFFLTTASGVSVLPQNRSSPCIHYFTGTPDPSRSIFKPFIFVDDVKLVPKTQSPCFGDDDPAKKEPRFQEKPDRRHELYKAHEWARAIIESDQEQGRKLRSTMLELEKQGLEAMEEILTSSEPLDPAEVGDLFYDCVDTEIKFFK
B3: in experiment [1], the binding entry is “binds”.

B4: endogenous SCRN1 (protein, UniProt Q12765 1-414)
chain: B3 chain
With B4, the binding result in experiment [3] is on record as “binds”.
